According to US20250339443A1, “METHOD FOR TREATING OR PREVENTING CALCIUM RELEASE-ACTIVATED CALCIUM CHANNEL OR DISCOIDIN DOMAIN RECEPTOR 2 RELATED DISORDERS OR CONDITIONS” (LumiSTAR Biotechnology, Inc., priority 2023, published 2025):
For at least one compound, name, drawing or mass did not settle the structure.

Amino acid sequences for entries named in this document (tags omitted).
UniProt Q96D31, whole entry: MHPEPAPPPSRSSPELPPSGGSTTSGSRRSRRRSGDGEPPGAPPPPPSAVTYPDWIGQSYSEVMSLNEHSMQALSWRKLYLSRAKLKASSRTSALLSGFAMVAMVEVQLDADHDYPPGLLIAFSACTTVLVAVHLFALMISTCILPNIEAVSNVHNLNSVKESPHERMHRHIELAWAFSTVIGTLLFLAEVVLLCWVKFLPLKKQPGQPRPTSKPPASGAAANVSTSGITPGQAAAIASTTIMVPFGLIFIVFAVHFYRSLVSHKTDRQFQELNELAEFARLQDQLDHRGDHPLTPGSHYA

How the values were obtained:
Stim1 or Orai1 puncta = target: T1, Stim1 or Orai1 puncta (Homo sapiens, UniProt Q96D31); test: Orai1 and Stim1 puncta in HEK293T cells overexpressing CFP-Orai1/Stim1-mCherry after thapsigargin; assay type: cell-based; conditions: 10 μM pretreatment 30 min, 1 μM thapsigargin 15 min
T1 construct: expressed in transfected cells; host or cells: HEK293T
Experimental: FIG. 1A, FIG. 1B, FIG. 1C, FIG. 1D, FIG. 1E, FIG. 1F, FIG. 1G, FIG. 1H, FIG. 1I, FIG. 1J, FIG. 1K, FIG. 1L, FIG. 1M, and FIG. 1N show WRG-28 and atovaquone (Av) suppress the activation of DDR2 and calcium release-activated calcium (CRAC) channel. FIG. 1A indicates HEK293T cells were transiently overexpressed with DDR2 and then pretreated with different compounds (10 μM), including WRG-28, Av, donepezil hydrochloride (Dh), terazosin hydrochloride (Th), verapamil and flecainide for 30 minutes. Verapamil and flecainide were used as negative control here. After that, cells were treated with 50 μg/mL type I collagen for 12 hours. Cell lysates were harvested and subjected to Western blot analysis with antibodies against phosphotyrosine antibody (clone 4G10), DDR2, and β-actin. […] CRAC channel activity was evaluated by applying 1 μM thapsigargin (Thap.) in a calcium-free solution to deplete the endoplasmic reticulum calcium store, followed by the reintroduction of 2 mM Ca^2+ in an external solution. The concentration of cytosolic calcium ions increases as calcium flows through the CRAC channel, leading to the second peak in cytosolic calcium waves. […] Further analyses are presented in FIG. 1I and FIG. 1J, where the second peak of each wave and rate of entry were analyzed. […] The Orai1 and Stim1 puncta in HEK293T cells overexpressed with CFP-Orai1/Stim1-mCherry were assessed. […]

CRAC channel = CRAC channel (Homo sapiens, UniProt Q96D31); test: CRAC channel activity / SOCE in HCF; assay type: cell-based; set-up: endogenous in cells; conditions: 10 μM pretreatment 45 min
Experimental: Cells were co-treated with various compounds (10 μM) and TGF-β1 for 24 hours. Following this, cell lysates were harvested, and the protein expression was assessed by Western blot analysis. FIG. 3D depicts the examination of TGF-β1-induced fibronectin deposition and α-SMA expression in HCF treated with 10 μM of DMSO, BTP2, WRG-28, or Av through immunofluorescence staining. The images were captured using a confocal microscope, the Olympus FV-1000. FIG. 3E, FIG. 3F, and FIG. 3G illustrate the assessment of CRAC channel activity in HCF, MRC5, and rat HSC-T6. These cells were pretreated with 10 μM of BTP2, WRG-28, or Av for 45 min. The evaluation included measuring the second peak of each calcium wave and the rate of entry. Each bar within the figure represents the mean value derived from 77 to 91 cells for HCF, 31 to 49 cells for MRC5, and 43 to 94 cells for HSC-T6. In all the graphs, *, **, and *** denote p-values of <0.05, 0.01, and 0.001, respectively.
Cells cultured on a glass-bottom 96 well plate for 48 hours were treated with different compounds (10 μM) and Fura 2-AM (1 μM) simultaneously in a solution containing 145 mM NaCl, 2.8 mM KCl, 2 mM CaCl2, 2 mM MgCl2, 10 mM D-glucose, 10 mM HEPES, pH 7.4 for 40 minutes in the dark. […] All the images were analyzed by using IGOR Pro software. […]

## O=C1C(O)=C([C@H]2CC[C@H](c3ccc(Cl)cc3)CC2)C(=O)c2ccccc21 [Av, atovaquone]
Stim1 or Orai1 puncta
  formation of Stim1 or Orai1 puncta induced by store depletion: unaffected
CRAC channel
  SOCE: notably reduced
